{"source": "PubChem BioAssay AID652243 (Drosophila RNAi Screening Center, 2013)", "aim": "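Knock-downs that decrease or increase androgen receptor reporter signal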 (primary screen)", "cell system": "Drosophila S2R+ cells", "knock-down reagent": "long dsRNA against Drosophila genes", "timing": "72 h (48 h, then 24 h hormone)", "challenge": "synthetic androgen R1881 at 10 nM for 24 h", "measured": "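Firefly light from an androgen-responsive reporter and Renilla control light per well, raw and unnormalised, for each of two replicates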", "direction": "firefly reporter light: higher = more light from androgen-responsive reporter; Renilla control light: higher = more constitutive control signal (cell number, transfection)", "call rule": "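Across duplicate plates, a knock-down whose log firefly/Renilla ratio shifted a set fold down or up from the GFP/LacZ control mean was a hit; the downward cut appears as both 1.5 and 3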", "meaning of the calls": "active = hit: reporter lowered or raised; inactive = no hit", "note": "The deposit covers about 24,000 reagents; this is an unselected part of those that have a named target and a result. In the full data, 246 (1%) got an active call. 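Plates not normalised; calls are printed but the firefly/Renilla ratio behind them is not deposited; fold cut for lowering reported inconsistently.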 Raw values vary from plate to plate and are shown uncorrected. Unmarked entries are inactive. The numbers tell different reagents against one gene apart. Names joined by + are all predicted targets of the reagent. No sequences are given here. Not stated in the record: the amount of reagent."}
{"gene knocked down": "CG10183 (GeneID 42782)", "dsRNA no.": 1, "firefly reporter light, replicate 1": 1.86e5, "firefly reporter light, replicate 2": 2.86e5, "Renilla control light, replicate 1": 2.55e6, "Renilla control light, replicate 2": 2.64e6}
{"gene knocked down": "CG10183 (GeneID 42782)", "dsRNA no.": 2, "firefly reporter light, replicate 1": 1.22e6, "firefly reporter light, replicate 2": 1.23e6, "Renilla control light, replicate 1": 9.69e5, "Renilla control light, replicate 2": 9.75e5}
{"gene knocked down": "Rtnl1 (GeneID 33721)", "dsRNA no.": 1, "firefly reporter light, replicate 1": 1.88e5, "firefly reporter light, replicate 2": 1.59e5, "Renilla control light, replicate 1": 4.95e5, "Renilla control light, replicate 2": 5.18e5}
{"gene knocked down": "Rtnl1 (GeneID 33721)", "dsRNA no.": 2, "firefly reporter light, replicate 1": 6.00e5, "firefly reporter light, replicate 2": 8.24e5, "Renilla control light, replicate 1": 1.62e6, "Renilla control light, replicate 2": 2.59e6}
{"gene knocked down": "Rtnl1 (GeneID 33721)", "dsRNA no.": 3, "firefly reporter light, replicate 1": 7.66e5, "firefly reporter light, replicate 2": 6.76e5, "Renilla control light, replicate 1": 1.23e6, "Renilla control light, replicate 2": 1.08e6}
{"gene knocked down": "Rtnl1 (GeneID 33721)", "dsRNA no.": 4, "firefly reporter light, replicate 1": 8.50e5, "firefly reporter light, replicate 2": 7.35e5, "Renilla control light, replicate 1": 2.73e6, "Renilla control light, replicate 2": 2.19e6}
{"gene knocked down": "CG43996 + CG43997", "dsRNA no.": 1, "firefly reporter light, replicate 1": 2.34e5, "firefly reporter light, replicate 2": 3.21e5, "Renilla control light, replicate 1": 2.80e6, "Renilla control light, replicate 2": 1.91e6}
{"gene knocked down": "CG43996 + CG43997", "dsRNA no.": 2, "firefly reporter light, replicate 1": 4.24e5, "firefly reporter light, replicate 2": 4.26e5, "Renilla control light, replicate 1": 2.78e6, "Renilla control light, replicate 2": 2.79e6}
{"gene knocked down": "Gr61a (GeneID 38098)", "dsRNA no.": 1, "firefly reporter light, replicate 1": 72182, "firefly reporter light, replicate 2": 1.28e5, "Renilla control light, replicate 1": 1.21e6, "Renilla control light, replicate 2": 1.10e6}
{"gene knocked down": "CG8620 (GeneID 50310)", "dsRNA no.": 1, "firefly reporter light, replicate 1": 1.22e5, "firefly reporter light, replicate 2": 1.65e5, "Renilla control light, replicate 1": 1.70e6, "Renilla control light, replicate 2": 2.00e6}
{"gene knocked down": "CG8620 (GeneID 50310)", "dsRNA no.": 2, "firefly reporter light, replicate 1": 7.08e5, "firefly reporter light, replicate 2": 5.94e5, "Renilla control light, replicate 1": 7.78e5, "Renilla control light, replicate 2": 1.27e6}
{"gene knocked down": "Jon25Biii (GeneID 33706)", "dsRNA no.": 1, "firefly reporter light, replicate 1": 1.42e5, "firefly reporter light, replicate 2": 76803, "Renilla control light, replicate 1": 2.23e6, "Renilla control light, replicate 2": 1.22e6}
{"gene knocked down": "Jon25Biii (GeneID 33706)", "dsRNA no.": 2, "firefly reporter light, replicate 1": 7.85e5, "firefly reporter light, replicate 2": 5.53e5, "Renilla control light, replicate 1": 6.54e5, "Renilla control light, replicate 2": 6.10e5}
{"gene knocked down": "CG42288 (GeneID 36559)", "dsRNA no.": 1, "firefly reporter light, replicate 1": 1.04e5, "firefly reporter light, replicate 2": 1.49e5, "Renilla control light, replicate 1": 1.99e6, "Renilla control light, replicate 2": 1.99e6}
{"gene knocked down": "CG42288 (GeneID 36559)", "dsRNA no.": 2, "firefly reporter light, replicate 1": 2.88e5, "firefly reporter light, replicate 2": 2.99e5, "Renilla control light, replicate 1": 9.38e5, "Renilla control light, replicate 2": 1.08e6}
{"gene knocked down": "CG42288 (GeneID 36559)", "dsRNA no.": 3, "firefly reporter light, replicate 1": 7.38e5, "firefly reporter light, replicate 2": 6.81e5, "Renilla control light, replicate 1": 1.73e6, "Renilla control light, replicate 2": 1.73e6}
{"gene knocked down": "CG12964 (GeneID 36714)", "dsRNA no.": 1, "firefly reporter light, replicate 1": 4.62e5, "firefly reporter light, replicate 2": 5.26e5, "Renilla control light, replicate 1": 3.09e5, "Renilla control light, replicate 2": 3.32e5}
{"gene knocked down": "CG12964 (GeneID 36714)", "dsRNA no.": 2, "firefly reporter light, replicate 1": 5.58e5, "firefly reporter light, replicate 2": 6.30e5, "Renilla control light, replicate 1": 1.08e6, "Renilla control light, replicate 2": 1.08e6}
{"gene knocked down": "ATPsynC (GeneID 43693)", "dsRNA no.": 1, "firefly reporter light, replicate 1": 1.02e5, "firefly reporter light, replicate 2": 80139, "Renilla control light, replicate 1": 8.44e5, "Renilla control light, replicate 2": 4.47e5}
{"gene knocked down": "CG43078 (GeneID 38981)", "dsRNA no.": 1, "firefly reporter light, replicate 1": 6.05e5, "firefly reporter light, replicate 2": 7.57e5, "Renilla control light, replicate 1": 9.58e5, "Renilla control light, replicate 2": 1.55e6}
{"gene knocked down": "CG43078 (GeneID 38981)", "dsRNA no.": 2, "firefly reporter light, replicate 1": 8.84e5, "firefly reporter light, replicate 2": 1.06e6, "Renilla control light, replicate 1": 1.44e6, "Renilla control light, replicate 2": 1.58e6}
{"gene knocked down": "CG43078 (GeneID 38981)", "dsRNA no.": 3, "firefly reporter light, replicate 1": 8.13e5, "firefly reporter light, replicate 2": 5.65e5, "Renilla control light, replicate 1": 1.54e6, "Renilla control light, replicate 2": 1.44e6}
{"gene knocked down": "CG43078 (GeneID 38981)", "dsRNA no.": 4, "firefly reporter light, replicate 1": 6.55e5, "firefly reporter light, replicate 2": 6.80e5, "Renilla control light, replicate 1": 2.63e6, "Renilla control light, replicate 2": 1.74e6}
{"gene knocked down": "CG43078 (GeneID 38981)", "dsRNA no.": 5, "firefly reporter light, replicate 1": 3.55e5, "firefly reporter light, replicate 2": 3.62e5, "Renilla control light, replicate 1": 5.98e5, "Renilla control light, replicate 2": 5.27e5}

4 of these entries in another layout.
Jon25Biii (GeneID 33706) #2
- firefly reporter light, replicate 1: 7.85e5
- firefly reporter light, replicate 2: 5.53e5
- Renilla control light, replicate 1: 6.54e5
- Renilla control light, replicate 2: 6.10e5

CG42288 (GeneID 36559) #1
- firefly reporter light, replicate 1: 1.04e5
- firefly reporter light, replicate 2: 1.49e5
- Renilla control light, replicate 1: 1.99e6
- Renilla control light, replicate 2: 1.99e6

CG42288 (GeneID 36559) #2
- firefly reporter light, replicate 1: 2.88e5
- firefly reporter light, replicate 2: 2.99e5
- Renilla control light, replicate 1: 9.38e5
- Renilla control light, replicate 2: 1.08e6

CG42288 (GeneID 36559) #3
- firefly reporter light, replicate 1: 7.38e5
- firefly reporter light, replicate 2: 6.81e5
- Renilla control light, replicate 1: 1.73e6
- Renilla control light, replicate 2: 1.73e6
